Screen size: about 330,000 compounds; about 7,700 (2.3%) were called active. The inconclusive results got no clear call from the source; some entries with a clear call stand among them for comparison. Calls come from the whole dose curve; as a rule, active = well fitted inhibition curve with a large enough effect; inconclusive = small, poorly fitted or top-dose-only effect, or effect the other way; inactive = flat fitted curve, though single readings scatter. Potencies beside an inconclusive call are fits to weak or partial responses and may not hold up.
Assay: qHTS screen for small molecules that inhibit ELG1-dependent DNA repair in human embryonic kidney (HEK293T) cells expressing luciferase-tagged ELG1; note: nearly all actives have a fitted effect of over 55% in size
Settings: HEK293T ELG1-luciferase reporter, luminescence, 16 h, DNA damage induced by 5-fluorouridine; series mostly up to 46.1 µM
Method in brief: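 Luminescence from the luciferase reporter, measured 30 min after ONE-Glo reagent at room temperature, was the read-out. Beforehand, 2,000 cells per well were exposed for 16 hr at 37 °C to 5-fluorouridine together with compound or vehicle.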
Potency is the fitted concentration of half-maximal effect.

Structure (SMILES) | Potency
CC(C)(C)c1ccc(C(=O)CC(Sc2ccc(Cl)cc2)C(=O)O)cc1 (stereo not drawn) | inconclusive: 2.59 µM [activator, full curve, poor fit]
Cn1/c(=N/NC(=O)c2ccccc2F)sc2ccccc21 | inconclusive: 11.6 µM [activator, partial curve]
COc1ccc(N2CC(C(=O)N/N=C/c3cccs3)CC2=O)cc1 (stereo not drawn) | inconclusive: 2.91 µM [activator, single point]
CN(C)CCNS(=O)(=O)c1ccc(Cl)cc1 | inactive
COc1ccc(NC(=O)CSc2n[nH]c(C(C)C)n2)c([N+](=O)[O-])c1 | inconclusive: 13 µM [inhibitor, partial curve]
COc1cccc(OC)c1C(=O)NC(=S)NCc1ccccc1 | inactive
COc1ccc(CCN(C)C(=S)Nc2cccc(C)c2)cc1OC | inactive
COc1ccc(NS(=O)(=O)c2cc(NC(=O)/C=C/c3cccs3)ccc2N2CCOCC2)cc1 | inconclusive: 23.1 µM [inhibitor, partial curve]
COc1ccc(CC(=O)Nc2ccc(OC)c(NC(=O)c3ccco3)c2)cc1 | inconclusive: 29.1 µM [inhibitor, single point]
CCOc1cc(C(=O)NC(C)Cc2cccs2)cc(OCC)c1OCC (stereo not drawn) | inconclusive: 16.4 µM [inhibitor, partial curve, poor fit]
Cc1c2cnn(CC(=O)NCCCN3CCCCC3C)c(=O)c2c(C)n1Cc1ccccc1 (stereo not drawn) | inactive
O=C(c1sc2ccccc2c1Cl)N(Cc1ccco1)C1CCS(=O)(=O)C1 (stereo not drawn) | inactive
CC1(C)c2ccccc2N2CC(=O)N(CC(N)=O)C21C (stereo not drawn) | inactive
Cc1oc(-c2ccccc2F)nc1CN1CCC(C(=O)NC2CCCc3ccccc32)CC1 (stereo not drawn) | inconclusive: 32.6 µM [inhibitor, single point]
O=C(Cc1ccc(Br)cc1)NNC(=O)c1cccs1 | inconclusive: 13 µM [activator, partial curve]
Cc1cc(NC(=O)c2cc3ccccc3o2)cc(C)c1OCC(=O)N1CCOCC1 | inconclusive: 29.1 µM [inhibitor, single point]
CCN(c1ccccc1)S(=O)(=O)c1ccc(C(=O)N(C)CCc2ccc(OC)c(OC)c2)cc1 | inconclusive: 29.1 µM [inhibitor, single point]
Cc1ccc(NC(=O)CNCC2CCCCC2)cc1S(=O)(=O)N(C)C | inconclusive: 25.9 µM [inhibitor, partial curve, poor fit]
Cc1sc2c(c1C)C(=O)NC(c1ccccc1F)N2 (stereo not drawn) | inconclusive: 14.6 µM [activator, partial curve]
Nc1cc(C(=O)O)c(N)c2c1C(=O)c1ccccc1C2=O | inconclusive: 25.9 µM [inhibitor, partial curve, poor fit]
O=C(CSc1ccc(-c2cccc([N+](=O)[O-])c2)nn1)NC1CCCC1 | inactive
c1ccc(OCc2nn3c(-c4n[nH]c5c4CCC5)nnc3s2)cc1 | inconclusive: 32.6 µM [inhibitor, single point]

Quoted from the listing:
Value of COc1ccc(N2CC(C(=O)N/N=C/c3cccs3)CC2=O)cc1 (stereo not drawn) under Potency: inconclusive: 2.91 µM [activator, single point]
Value of COc1ccc(NS(=O)(=O)c2cc(NC(=O)/C=C/c3cccs3)ccc2N2CCOCC2)cc1 under Potency: inconclusive: 23.1 µM [inhibitor, partial curve]
Value of O=C(c1sc2ccccc2c1Cl)N(Cc1ccco1)C1CCS(=O)(=O)C1 (stereo not drawn) under Potency: inactive

Remaining list, next part

Structure (SMILES) | Potency
CN(C)c1ccc(/C=N/N=C/c2ccccc2O)cc1 | inconclusive: 0.58 µM [activator, partial curve]
CCOC(=O)c1cnc2c(ccc3ccccc32)c1Cl | inconclusive: 18.3 µM [activator, partial curve]
Cc1ccc(-c2cc(C)nc3nc(N)nn23)cc1 | inconclusive: 25.9 µM [activator, single point]
O=C(N/N=C/c1cccc(OCc2ccccc2)c1)c1ccc(Br)cc1 | inconclusive: 29.1 µM [inhibitor, single point]
COC(=O)c1c(C)[nH]c(C(=O)CSc2ncnc3sc(-c4ccccc4)cc23)c1C | inactive
COc1ccc(NC(=S)NC(NC(=O)CCl)C(Cl)(Cl)Cl)c([N+](=O)[O-])c1 (stereo not drawn) | inconclusive: 25.9 µM [inhibitor, partial curve, poor fit]
Cc1ccc(S(=O)(=O)NNc2ccccc2)cc1 | inactive
O=C(OCC(=O)N1CCCCCC1)c1cnc(Cl)c(Cl)c1 | inconclusive: 29.1 µM [activator, single point]
Cc1ccccc1NC(=O)c1c(O)c2cccc3c2n(c1=O)CC3 | inconclusive: 16.4 µM [activator, partial curve, poor fit]
CNc1ccc(/C=C/C(=O)c2ccc(C)cc2)cc1[N+](=O)[O-] | inconclusive: 23.1 µM [activator, single point]
COc1ccc(OC)c(NC(=O)CC2C(=O)NCCN2C(=O)Nc2cccc(Cl)c2)c1 (stereo not drawn) | inconclusive: 11.6 µM [inhibitor, partial curve]
COc1ccc(/C=C/C(=O)Oc2ccc(/C=N\NC(=O)c3ccc(F)cc3)cc2)cc1 | inconclusive: 18.4 µM [activator, partial curve, poor fit]
COc1ccc(CCN(C(=O)COc2ccccc2)c2nc(-c3ccccc3)cs2)cc1OC | active: 23.1 µM
COc1ccc2[nH]c(=O)c(CN(CC3CCCO3)S(=O)(=O)c3ccccc3)cc2c1 (stereo not drawn) | inconclusive: 29.1 µM [inhibitor, single point]
CC(C)c1nc(SCC(=O)N2c3ccccc3CC2C)c2ccccc2n1 (stereo not drawn) | inconclusive: 16.4 µM [inhibitor, partial curve, poor fit]
N#Cc1c(N(CCO)CCO)nc(N)c2c(N)nc3c(c12)CC(=O)N3Cc1cccs1 | inconclusive: 4.61 µM [inhibitor, full curve]
O=C(COC(=O)CNC(=O)c1ccc(Cl)cc1)Nc1ccc(Cl)cn1 | inconclusive: 20.6 µM [activator, single point]
COc1cccc(C(=O)Nc2nnc(SCC(=O)Nc3ccc(NC(C)=O)cc3)s2)c1 | inconclusive: 9.2 µM [activator, partial curve]
COc1ccc(CCNC(=S)Nc2ccc(OC)cc2)cc1 | inactive
CCCCn1c(=O)[nH]c(=O)c2c1nc(-c1ccc3ccccc3c1)n2CC | inconclusive: 18.3 µM [inhibitor, single point]
O=C(COc1ccccc1)N(Cc1ccccc1)c1nc(-c2ccccc2)cs1 | inactive
